Data as given in PubChem BioAssay AID504784 (Drosophila RNAi Screening Center, 2011).

- Aim: 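Search for regulators of lipid droplet storage in oleate-fed fly cells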 (primary screen)
- Cell system: Drosophila Kc167 embryonic cells
- Reagent: long dsRNA against Drosophila genes, about 250 ng dsRNA per well
- Time to read-out: 4 days
- Treatment: cells fed 400 µM oleic acid bound to BSA
- Measured: 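Microscope images give a droplet-to-nucleus area ratio, taken as log and converted to a screen-wide B-score; higher values mean greater lipid storage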
- Direction: droplet/nuclear area B-score: higher = more stored lipid (overstorage)
The deposit covers about 17,000 reagents; below is a random part of those that have a named target and a result. 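Each column is one replicate's B-score; the combined score over replicates was not deposited, so single values may mislead.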

predicted target	amplicon	droplet/nuclear area B-score, replicate 1	droplet/nuclear area B-score, replicate 2	droplet/nuclear area B-score, replicate 3
E(spl)m2-BFM (Enhancer of split m2, Bearded family member)	DRSC16991		0.808	
E(spl)m2-BFM (Enhancer of split m2, Bearded family member)	DRSC23082	-0.391	-0.108	
CG8708	DRSC07240	0.00687	0.611	
mRpL52 (mitochondrial ribosomal protein L52)	DRSC06585	-2.65	1.54	
Ag5r (Antigen 5-related)	DRSC19327	0.85	0.216	-0.52
nmdyn-D7	DRSC17016	0.844	-0.322	
CG2861	DRSC18229	0.0678	0.931	
Gen (XPG-like endonuclease)	DRSC09679	-0.62	-0.154	
Idua (alpha-L-iduronidase)	DRSC02941	-0.0174	-0.153	
Ugt302K1 (UDP-glycosyltransferase family 302 member K1)	DRSC16086	-1.12	0.0369	
CG2201	DRSC03721	-2.77	-0.734	
CG9961	DRSC00738	1.32	-1	
CG9961	DRSC23343	-0.0357	0.909	
CG4701	DRSC01952	2.61	-0.429	
CG10864	DRSC14273	-0.733	-0.149	
RpL11 (Ribosomal protein L11)	DRSC07537	5.57	5.79	
p24-1 (p24-related-1)	DRSC19827	2.43	2.2	0.393
CG6495	DRSC01993	-2.81	1.16	
prage	DRSC17957	-0.0169	-0.0429	
prage	DRSC17958	-0.497	-1.37	
prage	DRSC18490	0.142	-0.0829	
prage	DRSC18497	1.42	0.0179	
CG17377	DRSC00950	0.265	-1.06	
CG17377	DRSC02615	0.659	0.0314	
CG17377	DRSC21811	0.521	1.43	
Zip102B (Zinc/iron regulated transporter-related protein 102B)	DRSC17155	-0.282	0.359	1.35
CG7766	DRSC18424	-2.02	-2.29	0.207
TwdlS (TweedleS)	DRSC14737	-1.94	0.274	
app (approximated)	DRSC09159	0.982	0.622	
app (approximated)	DRSC10246	-0.702	0.52	
app (approximated)	DRSC10526	-1.12	-1.32	
CG5762	DRSC15869	-0.319	0.406	
CG8388	DRSC07157	1.32	-0.816	
Prp5 (pre-mRNA processing factor 5)	DRSC19975	-2.2	0.0321	
dod (dodo)	DRSC20577	0.0271	-0.143	
CG10809	DRSC09802	-1.21	-2.92	
tbrd-1	DRSC14601	0.128	-0.844	
bi (bifid)	DRSC18742	0.164	0.599	
SuUR (Suppressor of Under-Replication)	DRSC11292	0.311	-0.419	
pAbp (poly(A) binding protein)	DRSC07659	2.3	6.61	
wam (wampa)	DRSC15171	1.97	1.24	
CG14989	DRSC08448	0.547	0.181	
CG5614	DRSC15845	-2.33	-3.31	-0.672
CG13562	DRSC04200	2.01	0.195	
sty (sprouty)	DRSC08737	0.202	0.039	
sty (sprouty)	DRSC22994	1.04	1.14	
CG32599	DRSC19433	-0.837	0.237	-0.129
Der-1 (Derlin-1)	DRSC00301	-1.17	-1.55	
CG3040	DRSC22486	0.0841	-0.382	
CG30196	DRSC04156	0.846	-0.979	
Or35a (Odorant receptor 35a)	DRSC03389	-2.35	1.04	
Strica (Ser/Thr-rich caspase)	DRSC04920	0.529	0.16	
hid (head involution defective)	DRSC11316	0.711	0.0425	
Pino (Pinocchio)	DRSC00038	-4.85	-5.02	
Pino (Pinocchio)	DRSC00662	5.08	8.32	
Lrrk (Leucine-rich repeat kinase)	DRSC15816		1.24	0.275
Lrrk (Leucine-rich repeat kinase)	DRSC21971	1.67	0.0316	
CG15014	DRSC08468	1.85	2.52	
CG33460	DRSC05570	-0.579	0.0398	
CG1421	DRSC03707	0.903	-1.07	
CG32112	DRSC09815	-1.72	-1.94	
CG3566	DRSC18311	-1.04	-0.451	
prom (prominin)	DRSC04684	-0.438	0.628	
prom (prominin)	DRSC21463	-0.383	0.119	
prom (prominin)	DRSC22088	3.35	-0.0175	
Wnt2 (Wnt oncogene analog 2)	DRSC05160	-0.465	-0.00849	
Wnt2 (Wnt oncogene analog 2)	DRSC07574	0.213	-0.339	
Pgm1 (Phosphoglucose mutase 1)	DRSC10490	-0.258	-0.00253	1.66
CG10365	DRSC14234	1.27	-1.61	
CG13895	DRSC08365	-0.0398	0.817	
Ac76E (Adenylyl cyclase 76E)	DRSC09642	3.7	-1.25	
Ac76E (Adenylyl cyclase 76E)	DRSC09662	0.00181	1.71	0.0195
CG14478	DRSC06450	-0.0726	-0.121	
amon (amontillado)	DRSC13784	0.844	0.137	
amon (amontillado)	DRSC16900	-0.771	-0.3	0.528
CG33218 (retired record)	DRSC22944	-0.591	1.11	
rdhB (retinol dehydrogenase B)	DRSC16190	-0.00548	2.17	
LRR (Leucine-rich repeat)	DRSC06444	-0.0138	0.34	
car (carnation)	DRSC20316	0.443	0.54	
ATPsynbetaL (ATP synthase, beta subunit-like)	DRSC10503	0.455	0.914	
Sp7 (Serine protease 7)	DRSC15461	-0.691	-1.98	
CG10055	DRSC12503	0.241	0.806	
CG10910	DRSC06007	2.28	-0.00306	-0.0243

Records above whose gene name begins with P or p:
predicted target	amplicon	droplet/nuclear area B-score, replicate 1	droplet/nuclear area B-score, replicate 2	droplet/nuclear area B-score, replicate 3
p24-1 (p24-related-1)	DRSC19827	2.43	2.2	0.393
prage	DRSC17957	-0.0169	-0.0429	
prage	DRSC17958	-0.497	-1.37	
prage	DRSC18490	0.142	-0.0829	
prage	DRSC18497	1.42	0.0179	
Prp5 (pre-mRNA processing factor 5)	DRSC19975	-2.2	0.0321	
pAbp (poly(A) binding protein)	DRSC07659	2.3	6.61	
Pino (Pinocchio)	DRSC00038	-4.85	-5.02	
Pino (Pinocchio)	DRSC00662	5.08	8.32	
prom (prominin)	DRSC04684	-0.438	0.628	
prom (prominin)	DRSC21463	-0.383	0.119	
prom (prominin)	DRSC22088	3.35	-0.0175	
Pgm1 (Phosphoglucose mutase 1)	DRSC10490	-0.258	-0.00253	1.66
